Results: patent US8124634B2, “CB1 receptor modulators” (7TM Pharma A/S, priority 2006, dated 2012)
Some results were stated once for a whole list of compounds, not compound by compound. At least one structure is not confirmed: it was looked up by name or label, or the drawing left a doubt.

Chains of the proteins cited; added tags and fusions are not shown.
UniProt P21554, whole entry: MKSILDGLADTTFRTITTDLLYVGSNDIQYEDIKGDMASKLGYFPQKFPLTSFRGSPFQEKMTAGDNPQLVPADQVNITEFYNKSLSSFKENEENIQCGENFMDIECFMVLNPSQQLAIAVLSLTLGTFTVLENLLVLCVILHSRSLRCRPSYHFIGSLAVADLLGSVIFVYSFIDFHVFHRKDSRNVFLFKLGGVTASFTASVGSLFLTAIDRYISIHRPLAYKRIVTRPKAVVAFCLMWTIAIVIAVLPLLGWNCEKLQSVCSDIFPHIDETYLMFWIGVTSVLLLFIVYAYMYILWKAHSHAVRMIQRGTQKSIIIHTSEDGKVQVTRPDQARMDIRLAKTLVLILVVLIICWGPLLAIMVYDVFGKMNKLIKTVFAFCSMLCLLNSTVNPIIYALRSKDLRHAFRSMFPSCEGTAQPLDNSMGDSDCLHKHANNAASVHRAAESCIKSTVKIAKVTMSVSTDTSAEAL

Biological target: T1, human CB1 receptor (Homo sapiens, UniProt P21554)
T1 construct: expressed in transfected cells; membranes
Assay: Cannabinoid Receptor-1 functional assay: inhibition of CP55940-induced [35S]GTPγS binding to membranes of CHO-K1 cells expressing human CB1
Format: biochemical
Conditions: 3 nM CP55940, hCB1 membranes, [35S]GTPγS SPA; read-out: IC50 value for antagonizing a CB1 receptor agonist
Excerpt: Transfection and Cell Culture—The cDNA encoding the human CB1 (Cannabinoid Receptor-1) receptor (GenBank accession number NM_016083) was cloned from a human adipose tissue cDNA library and cloned into the eukaryotic expression vector pcDNA3.1 (Invitrogen).
Chinese Hamster Ovary cells (CHO-K1) stably expressing recombinant human CB1 were generated by transfecting the plasmid containing the coding sequence of the human CB1 receptor in CHO-K1 cells, using lipofectamin, according to the manufacturer instructions. Resistant clones were selected in the presence of 600 μg/ml G418 (Life technology). Stably transfected CHO-K1 cells were maintained in Ham's F-12 culture medium (Invitrogen), supplemented with 10% fetal calf serum (Invitrogen), 100 U/ml penicillin, 100 μg/ml streptomycin (Life Technology), and 600 μg/ml G418.
Cannabinoid Receptor-1 Functional Assay.
Functional activities of the above examples of compounds of the invention were assessed in vitro by measuring their ability to inhibit CP55940-induced [^35S]GTPγS binding to membranes prepared from CHO-K1 cells expressing the human CB1 receptor (described in Transfection and Cell Culture). CP55940 is a well known non-selective CB1 and CB2 receptor agonist (e.g Felder et al., 1995, Molecular Pharmacology, (48) 443-50). Membranes were prepared by a standard procedure. Briefly, cells were harvested using 10 mM EDTA and collected by centrifugation. Pelleted cells were homogenized in ice-cold 20 mM Hepes (pH 7.4),10 mM EDTA and protease inhibitors (Complete protease inhibitor cocktail tablet, Roche) using an Ultra Turrax Homogenizer. The homogenate was centrifuged at 14 000 rpm for 45 min. at 4° C. The resultant pellet was resuspended in the same buffer but with only 0.1 mM EDTA and was again centrifuged at 14 000 rpm for 45 min. at 4° C. The resulting pellet (membranes) was resuspended in 20 mM Hepes (pH 7.4), 0.1 mM EDTA, 2 mM MgCl2 and protease inhibitors and protein concentration was determined by Micro BCA Protein Assay Reagent Kit (Pierce Biotechnology) according to the manufacturer instructions. The [^35S]GYPγS SPA (Scintillation Proximity Assay) binding assay was performed by incubating 5 μg/well hCB1-membranes with 1 nM [^35S]GYPγS (Perkin Elmer—NEG 030H) in the presence of 3 nM of CP55940 and various concentrations of the test compounds at room temperature for 1 hr in 96-well microtiter plates. 0.4 mg/well SPA beads (PVT-WGA; RPNQ0001 Amersham Pharmacia Biotech) were then added and the incubation continued for further 30 min. on an orbital shaker. The assay buffer contained 50 mM HEPES (pH 7.5), 50 mM NaCl, 2.5 mM MgCl2, 0.1% BSA, 1 μM GDP and 100 μg/ml Saponin. Microtiter plates were centrifuged at 1500 rpm for 5 min. and radioactivity was read immediately using a Topcounter (PerkinElmer Life Sciences). Data were analyzed and IC50 values determined by non-linear regression using the Prism software (GraphPad Software, San Diego).

Row | Compound | IC50
1 | 1-(2-Chloro-phenyl)-5-(4- chloro-phenyl)-4-(2H-tetrazol- 5-ylmethyl)-1H-pyrazole-3- carboxylic acid [(R)-1-(4- bromo-4-trifluoromethyl-3- pyridyl)-ethyl]-amide [[2.21]] | < 300 nM
2 | C[C@@H](NC(=O)c1nn(-c2ccccc2F)c(-c2ccc(Cl)cc2)c1Cc1nnn[nH]1)c1ccc(C(F)(F)F)cc1 [[4.1], 1-(2-Fluoro-phenyl)-5-(4-chloro-phenyl)-4-(1H-tetrazol-5-ylmethyl)-1H-pyrazole-3-carboxylic acid [(R)-1-(4-triflouromethyl-phenyl)-ethyl]-amide] | < 300 nM
3 | C[C@@H](NC(=O)c1nn(-c2ccccc2F)c(-c2ccc(Cl)cc2)c1Cc1nnn[nH]1)c1ccc(OC(F)(F)F)cc1 [[4.2], 1-(2-Fluoro-phenyl)-5-(4-chloro-phenyl)-4-(1H-tetrazol-5-ylmethyl)-1H-pyrazole-3-carboxylic acid [(R)-1-(4-triflouromethoxy-phenyl)-ethyl]-amide] | < 300 nM
4 | C[C@@H](NC(=O)c1nn(-c2ccccc2F)c(-c2ccc(Cl)cc2)c1Cc1nnn[nH]1)c1cccc(F)c1 [[4.3], 1-(2-Fluoro-phenyl)-5-(4-chloro-phenyl)-4-(1H-tetrazol-5-ylmethyl)-1H-pyrazole-3-carboxylic acid [(R)-1-(3-flouro-phenyl)-ethyl]-amide] | < 300 nM
5 | C[C@@H](NC(=O)c1nn(-c2ccccc2F)c(-c2ccc(Cl)cc2)c1Cc1nn[nH]n1)c1ccc(C(F)(F)F)cc1 [[6.1], 5-(4-Chloro-phenyl)-1-(2-flouro-phenyl)-4-(2H-tetrazol-5-ylmethyl)-1H-pyrazole-3-carboxylic acid [(R)-1-(4-trifluoromethyl-phenyl)-ethyl]-amide] | < 300 nM
6 | C[C@@H](NC(=O)c1nn(-c2ccccc2F)c(-c2ccc(Cl)cc2)c1Cc1nn[nH]n1)c1ccc(OC(F)(F)F)cc1 [[6.2], 5-(4-Chloro-phenyl)-1-(2-flouro-phenyl)-4-(2H-tetrazol-5-ylmethyl)-1H-pyrazole-3-carboxylic acid [(R)-1-(4-trifluoromethoxy-phenyl)-ethyl]-amide] | < 300 nM
